From patent EP0897720A1, “Droloxifene for prevention of breast cancer” (Pfizer Products Inc., priority 1997, dated 1999)

Test system: 7,12-dimethylbenz(a)anthraceneinduced mammary tumor
Assay: Inhibitory effect on the mammary tumor (DMBA-induced tumor model)
Type: in vivo, female Sprague-Dawley rat (Hanover breed)
Settings: 3 mg./kg./day by stomach tube, six times weekly over 28 days; control animals taken as 100%

In the case of `CC/C(=C(\c1ccccc1)c1ccc(OCCN(C)C)cc1)c1ccccc1` [Tamoxifen, reference compound], the “Relative Increase of the Average Tumor Surface” value is reported as 35%.
